Experimental data: PubChem BioAssay AID1259424 (University of Nebraska Medical Center, 2018)
Shown is a random part of about 14,000 reagents tested. 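Higher correlation or smaller distance means closer resemblance to KSR1 loss; control wells, including KSR1 knockdowns, recur on many plates.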 Some reagents were tested in more than one well and are listed for each. Not all columns of the deposit are shown. The record does not give: the time to read-out.

Purpose: 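Seek colon cancer survival genes behaving like KSR1, using a six-gene signature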 (primary screen)
Cell system: human HCT116 colon cancer cells
Reagent: siRNA pool against human genes, 50 nM
Measurement: 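Log2 levels of six mRNAs (branched-DNA multiplex), adjusted by two reference genes and the non-targeting median, then scored against the average KSR1 knockdown pattern as Pearson r and euclidean distance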
Direction: mean correlation with KSR1 profile and KSR1 correlation: higher = expression change more like KSR1 knockdown; mean distance from KSR1 profile: higher = expression change less like KSR1 knockdown

| mean correlation with KSR1 profile | mean distance from KSR1 profile | KSR1 correlation, replicate 1 | KSR1 correlation, replicate 2 | target |
| --- | --- | --- | --- | --- |
| -0.45 | 3.3 | -0.34 | -0.37 | LRRN1 |
| 0.358 | 1.71 | 0.359 | 0.153 | PRR7 |
| 0.181 | 1.97 | 0.146 | 0.108 | CYP2J2 |
| -0.0555 | 1.5 | 0.0832 | -0.602 | PTPRK |
| -0.496 | 2.98 | -0.632 | -0.379 | LAPTM4A |
| 0.268 | 1.68 | 0.145 | 0.063 | PRR3 |
| -0.0118 | 2.19 | -0.0101 | 0.0916 | CRYBA4 |
| 0.465 | 1.55 | 0.287 | 0.431 | C8orf76 |
| -0.574 | 1.75 | -0.398 | -0.514 | LRIF1 |
| 0.152 | 1.93 | -0.0815 | 0.194 | PCDHA7 |
| 0.268 | 2.56 | 0.217 | 0.164 | RASL10A |
| -0.707 | 1.92 | -0.454 | -0.754 | SPTSSB |
| -0.723 | 2.16 | -0.816 | -0.692 | CLCNKA |
| -0.339 | 2.91 | -0.359 | -0.2 | PRLH |
| -0.132 | 1.75 | -0.277 | -0.114 | RHOA |
| -0.242 | 2.26 | -0.407 | -0.318 | FLCN |
| -0.632 | 2.69 | -0.766 | -0.471 | KRT33B |
| -0.367 | 2.99 | -0.733 | -0.697 | SF3B5 |
| -0.638 | 4.53 | -0.518 | -0.765 | EBNA1BP2 |
| 0.0469 | 2.34 | 0.0826 | -0.0541 | CKMT1B |
| -0.487 | 2.79 | -0.66 | -0.553 | TMEM255A |
| -0.337 | 1.97 | -0.481 | -0.411 | TMEM181 |
| -0.477 | 1.93 | -0.679 | -0.276 | TLR5 |
| 0.615 | 2.08 | 0.481 | 0.162 | GTPBP3 |
| 0.562 | 1.84 | 0.523 | 0.56 | LSS |
| -0.144 | 3.84 | -0.0316 | -0.399 | ALDH1A3 |
| 0.536 | 1.03 | 0.709 | 0.464 | LATS2 |
| -0.27 | 2.12 | -0.584 | -0.283 | FAIM |
| 0.291 | 1.84 | 0.112 | 0.272 | ZNF223 |
| -0.53 | 2.35 | -0.626 | -0.537 | AQP5 |

The list goes on, starting with the last 5 of the part before.
| mean correlation with KSR1 profile | mean distance from KSR1 profile | KSR1 correlation, replicate 1 | KSR1 correlation, replicate 2 | target |
| --- | --- | --- | --- | --- |
| -0.144 | 3.84 | -0.0316 | -0.399 | ALDH1A3 |
| 0.536 | 1.03 | 0.709 | 0.464 | LATS2 |
| -0.27 | 2.12 | -0.584 | -0.283 | FAIM |
| 0.291 | 1.84 | 0.112 | 0.272 | ZNF223 |
| -0.53 | 2.35 | -0.626 | -0.537 | AQP5 |
| -0.179 | 2.97 | -0.256 | -0.502 | NUP214 |
| -0.242 | 7.31 | 0.655 | 0.545 | GNB1L |
| 0.0764 | 2.47 | 0.173 | -0.0651 | LGSN |
| -0.293 | 1.78 | -0.35 | -0.389 | DYRK4 |
| -0.233 | 3.07 | -0.308 | -0.49 | ERAP2 |
| 0.501 | 1.44 | 0.438 | 0.842 | ARHGAP35 |
| 0.6 | 3.32 | 0.408 | 0.619 | C14orf93 |
| 0.21 | 1.54 | 0.211 | 0.00907 | RAI1 |
| -0.453 | 2.62 | -0.521 | -0.346 | CXCL16 |
| -0.47 | 3.29 | -0.532 | -0.353 | GGA1 |
| -0.355 | 2.81 | -0.313 | -0.287 | RALY |
| -0.251 | 1.82 | -0.166 | -0.28 | SPG7 |
| -0.478 | 2.63 | -0.479 | -0.597 | SPG7 |
| 0.321 | 1.15 | 0.103 | 0.553 | SPG7 |
| 0.733 | 1.03 | 0.78 | 0.721 | JHY |
| -0.013 | 2.5 | 0.285 | 0.496 | TCEA2 |
| -0.531 | 1.41 | -0.854 | 0.0892 | AKR1B1 |
| -0.00711 | 1.65 | -0.129 | 0.00358 | TBC1D1 |
| 0.625 | 1.62 | 0.601 | 0.575 | PRIM2 |
| -0.554 | 2.53 | -0.485 | -0.49 | NACAD |
| -0.0949 | 3.26 | -0.00969 | -0.252 | AKT3 |
| -0.0644 | 2.22 | 0.166 | -0.0354 | SCGN |
| -0.381 | 2.73 | -0.526 | -0.521 | PRRT1 |
| 0.0754 | 1.72 | 0.338 | -0.0835 | CEPT1 |
| 0.254 | 3.24 | 0.335 | 0.472 | PRKCD |
| 0.553 | 1.97 | 0.474 | 0.522 | GNB4 |
| -0.122 | 1.68 | -0.224 | -0.378 | PDGFC |
| -0.249 | 2.08 | -0.135 | -0.179 | OSM |
| 0.592 | 1.36 | 0.396 | 0.645 | GPR157 |
| -0.227 | 2.77 | -0.141 | -0.275 | USP7 |
| -0.453 | 3.77 | -0.329 | -0.163 | SIX4 |
| 0.756 | 2.72 | 0.709 | 0.787 | GPR63 |
| -0.515 | 4.45 | -0.697 | -0.434 | OR1Q1 |
